According to the supplement of paper PMC12819154, “High-throughput peptide-centric local stability assay extends protein–ligand identification to membrane proteins, tissues and bacteria” (Nature Structural & Molecular Biology, 2025):
The other results are listed elsewhere or left out. Small differences around the control level are noise.

Sequences of proteins named here, by UniProt entry; tags and fusion partners are left off. A change or cut given only in a name is not applied to a line headed by its entry.
UniProt A2A432, whole entry: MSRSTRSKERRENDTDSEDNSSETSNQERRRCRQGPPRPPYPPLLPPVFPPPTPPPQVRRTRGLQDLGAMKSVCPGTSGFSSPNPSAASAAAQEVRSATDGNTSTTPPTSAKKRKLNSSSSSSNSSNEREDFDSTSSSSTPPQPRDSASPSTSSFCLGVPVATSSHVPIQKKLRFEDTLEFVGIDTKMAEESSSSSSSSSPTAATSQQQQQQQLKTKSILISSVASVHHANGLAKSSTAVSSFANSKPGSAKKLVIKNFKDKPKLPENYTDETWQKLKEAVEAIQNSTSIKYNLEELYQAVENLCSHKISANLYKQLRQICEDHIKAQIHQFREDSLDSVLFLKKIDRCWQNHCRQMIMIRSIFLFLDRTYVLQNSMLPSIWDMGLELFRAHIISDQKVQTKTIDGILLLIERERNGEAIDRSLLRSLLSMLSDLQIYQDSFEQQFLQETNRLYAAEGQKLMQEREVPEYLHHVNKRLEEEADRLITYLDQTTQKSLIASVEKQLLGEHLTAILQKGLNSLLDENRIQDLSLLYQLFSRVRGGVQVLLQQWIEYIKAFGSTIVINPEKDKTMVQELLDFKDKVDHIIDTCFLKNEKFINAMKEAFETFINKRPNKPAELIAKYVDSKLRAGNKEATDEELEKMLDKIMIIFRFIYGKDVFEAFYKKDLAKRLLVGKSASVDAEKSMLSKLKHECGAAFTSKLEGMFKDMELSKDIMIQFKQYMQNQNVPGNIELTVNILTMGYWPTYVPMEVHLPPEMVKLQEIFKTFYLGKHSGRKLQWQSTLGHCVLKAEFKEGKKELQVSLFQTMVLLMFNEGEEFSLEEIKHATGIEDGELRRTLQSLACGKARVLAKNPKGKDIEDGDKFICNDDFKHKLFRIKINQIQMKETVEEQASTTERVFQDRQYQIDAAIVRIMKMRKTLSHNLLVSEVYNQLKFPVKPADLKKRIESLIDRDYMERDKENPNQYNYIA
UniProt A3KMN5: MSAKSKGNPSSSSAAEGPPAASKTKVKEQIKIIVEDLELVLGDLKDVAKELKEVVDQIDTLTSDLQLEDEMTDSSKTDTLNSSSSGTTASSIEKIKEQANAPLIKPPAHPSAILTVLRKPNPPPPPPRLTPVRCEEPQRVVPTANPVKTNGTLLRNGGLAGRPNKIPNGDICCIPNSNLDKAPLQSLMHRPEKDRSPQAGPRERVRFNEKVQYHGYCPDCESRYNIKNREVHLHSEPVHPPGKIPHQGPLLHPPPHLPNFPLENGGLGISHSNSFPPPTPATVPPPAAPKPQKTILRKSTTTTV
UniProt A6H584: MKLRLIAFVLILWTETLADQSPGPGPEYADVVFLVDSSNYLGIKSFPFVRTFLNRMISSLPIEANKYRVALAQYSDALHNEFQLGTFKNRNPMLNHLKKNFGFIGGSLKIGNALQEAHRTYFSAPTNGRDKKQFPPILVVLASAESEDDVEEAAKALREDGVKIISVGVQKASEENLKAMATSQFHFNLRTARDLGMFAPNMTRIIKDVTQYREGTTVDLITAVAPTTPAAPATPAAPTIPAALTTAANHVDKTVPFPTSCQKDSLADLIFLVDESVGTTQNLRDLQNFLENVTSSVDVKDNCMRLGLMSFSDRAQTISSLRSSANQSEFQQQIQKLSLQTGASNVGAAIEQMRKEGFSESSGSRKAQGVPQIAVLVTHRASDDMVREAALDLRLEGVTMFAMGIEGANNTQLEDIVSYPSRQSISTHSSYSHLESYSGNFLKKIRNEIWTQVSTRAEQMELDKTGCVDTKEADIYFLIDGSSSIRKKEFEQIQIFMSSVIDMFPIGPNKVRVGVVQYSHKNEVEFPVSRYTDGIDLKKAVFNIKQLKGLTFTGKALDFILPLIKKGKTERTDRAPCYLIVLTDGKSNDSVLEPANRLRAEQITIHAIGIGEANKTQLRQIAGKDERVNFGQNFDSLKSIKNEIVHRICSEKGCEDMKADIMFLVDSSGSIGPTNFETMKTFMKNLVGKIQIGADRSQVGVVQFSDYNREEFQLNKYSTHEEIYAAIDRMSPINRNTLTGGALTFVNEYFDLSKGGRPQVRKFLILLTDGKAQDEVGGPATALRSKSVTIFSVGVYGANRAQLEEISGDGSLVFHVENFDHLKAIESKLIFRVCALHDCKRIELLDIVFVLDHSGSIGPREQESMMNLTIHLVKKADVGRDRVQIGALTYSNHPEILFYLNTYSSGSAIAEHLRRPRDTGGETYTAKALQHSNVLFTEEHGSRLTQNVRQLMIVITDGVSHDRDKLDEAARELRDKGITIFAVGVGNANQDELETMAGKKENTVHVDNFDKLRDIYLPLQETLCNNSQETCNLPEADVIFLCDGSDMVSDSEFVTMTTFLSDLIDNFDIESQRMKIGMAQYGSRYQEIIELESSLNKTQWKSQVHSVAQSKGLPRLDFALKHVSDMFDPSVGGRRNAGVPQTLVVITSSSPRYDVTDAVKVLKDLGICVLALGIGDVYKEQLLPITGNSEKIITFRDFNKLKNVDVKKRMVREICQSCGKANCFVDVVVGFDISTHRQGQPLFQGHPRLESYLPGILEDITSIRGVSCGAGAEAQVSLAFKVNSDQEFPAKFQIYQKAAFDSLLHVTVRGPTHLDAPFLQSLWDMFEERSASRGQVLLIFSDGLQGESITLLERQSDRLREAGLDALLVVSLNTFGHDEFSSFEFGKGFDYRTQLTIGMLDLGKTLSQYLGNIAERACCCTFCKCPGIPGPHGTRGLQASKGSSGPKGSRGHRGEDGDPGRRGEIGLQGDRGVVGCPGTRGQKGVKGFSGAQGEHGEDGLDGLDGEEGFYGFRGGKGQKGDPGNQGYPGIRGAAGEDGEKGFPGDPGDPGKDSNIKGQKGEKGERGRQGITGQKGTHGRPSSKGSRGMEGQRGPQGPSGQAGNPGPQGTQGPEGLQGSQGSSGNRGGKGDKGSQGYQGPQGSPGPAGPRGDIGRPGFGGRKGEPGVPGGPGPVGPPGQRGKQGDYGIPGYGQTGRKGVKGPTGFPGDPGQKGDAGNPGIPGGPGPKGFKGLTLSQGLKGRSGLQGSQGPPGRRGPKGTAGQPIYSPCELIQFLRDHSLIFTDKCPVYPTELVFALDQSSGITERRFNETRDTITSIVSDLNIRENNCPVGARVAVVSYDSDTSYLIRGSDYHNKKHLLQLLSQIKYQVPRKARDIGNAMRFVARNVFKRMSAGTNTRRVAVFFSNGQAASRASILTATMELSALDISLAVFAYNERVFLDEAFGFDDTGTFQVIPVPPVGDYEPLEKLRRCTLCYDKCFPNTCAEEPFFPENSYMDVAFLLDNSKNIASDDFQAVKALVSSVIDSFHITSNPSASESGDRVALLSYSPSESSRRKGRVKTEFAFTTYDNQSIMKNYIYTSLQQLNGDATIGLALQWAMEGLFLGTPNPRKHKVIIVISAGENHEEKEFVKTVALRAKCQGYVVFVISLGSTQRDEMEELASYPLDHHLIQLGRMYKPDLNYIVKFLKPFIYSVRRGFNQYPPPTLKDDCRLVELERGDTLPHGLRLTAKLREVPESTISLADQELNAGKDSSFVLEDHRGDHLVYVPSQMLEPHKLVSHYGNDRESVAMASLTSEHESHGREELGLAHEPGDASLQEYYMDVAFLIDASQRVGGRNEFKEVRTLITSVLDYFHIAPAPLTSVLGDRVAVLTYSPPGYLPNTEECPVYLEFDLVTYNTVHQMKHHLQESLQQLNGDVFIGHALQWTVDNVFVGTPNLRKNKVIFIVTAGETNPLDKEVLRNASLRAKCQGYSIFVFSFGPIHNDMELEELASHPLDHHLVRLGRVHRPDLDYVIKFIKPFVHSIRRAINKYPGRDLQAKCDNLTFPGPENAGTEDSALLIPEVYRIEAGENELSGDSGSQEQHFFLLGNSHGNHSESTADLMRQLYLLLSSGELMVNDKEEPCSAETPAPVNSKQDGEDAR
UniProt A2AT37: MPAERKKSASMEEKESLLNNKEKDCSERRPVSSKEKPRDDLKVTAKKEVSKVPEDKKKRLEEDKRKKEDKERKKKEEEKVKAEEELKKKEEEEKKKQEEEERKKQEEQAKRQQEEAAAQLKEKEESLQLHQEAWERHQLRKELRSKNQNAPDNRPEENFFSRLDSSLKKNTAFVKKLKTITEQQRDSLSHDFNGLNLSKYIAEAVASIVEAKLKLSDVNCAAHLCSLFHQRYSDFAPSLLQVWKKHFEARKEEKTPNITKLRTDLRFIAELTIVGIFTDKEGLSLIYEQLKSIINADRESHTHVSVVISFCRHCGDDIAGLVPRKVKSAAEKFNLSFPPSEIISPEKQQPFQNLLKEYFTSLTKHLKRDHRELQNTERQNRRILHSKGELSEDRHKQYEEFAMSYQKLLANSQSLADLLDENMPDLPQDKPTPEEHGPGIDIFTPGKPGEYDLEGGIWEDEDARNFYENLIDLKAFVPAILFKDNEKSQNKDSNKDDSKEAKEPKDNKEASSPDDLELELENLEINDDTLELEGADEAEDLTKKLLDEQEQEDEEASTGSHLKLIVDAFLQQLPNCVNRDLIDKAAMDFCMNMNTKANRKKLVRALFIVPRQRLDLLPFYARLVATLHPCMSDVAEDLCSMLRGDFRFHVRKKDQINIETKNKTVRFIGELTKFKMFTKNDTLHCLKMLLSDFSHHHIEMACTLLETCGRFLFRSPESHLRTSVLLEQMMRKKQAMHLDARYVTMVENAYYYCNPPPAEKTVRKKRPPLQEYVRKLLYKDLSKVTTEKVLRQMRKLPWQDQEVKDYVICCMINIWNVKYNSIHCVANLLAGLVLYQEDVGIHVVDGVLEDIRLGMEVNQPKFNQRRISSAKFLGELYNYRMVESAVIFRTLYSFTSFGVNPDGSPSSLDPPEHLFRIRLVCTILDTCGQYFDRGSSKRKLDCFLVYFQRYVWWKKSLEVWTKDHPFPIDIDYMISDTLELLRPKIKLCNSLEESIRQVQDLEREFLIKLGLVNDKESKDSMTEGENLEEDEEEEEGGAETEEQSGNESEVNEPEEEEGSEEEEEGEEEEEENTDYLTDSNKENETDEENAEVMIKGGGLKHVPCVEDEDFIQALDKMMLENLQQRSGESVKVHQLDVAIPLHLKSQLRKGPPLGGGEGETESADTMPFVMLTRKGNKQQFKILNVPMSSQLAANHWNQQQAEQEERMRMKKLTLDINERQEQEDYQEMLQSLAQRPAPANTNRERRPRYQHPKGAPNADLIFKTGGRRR
UniProt A2A9F4: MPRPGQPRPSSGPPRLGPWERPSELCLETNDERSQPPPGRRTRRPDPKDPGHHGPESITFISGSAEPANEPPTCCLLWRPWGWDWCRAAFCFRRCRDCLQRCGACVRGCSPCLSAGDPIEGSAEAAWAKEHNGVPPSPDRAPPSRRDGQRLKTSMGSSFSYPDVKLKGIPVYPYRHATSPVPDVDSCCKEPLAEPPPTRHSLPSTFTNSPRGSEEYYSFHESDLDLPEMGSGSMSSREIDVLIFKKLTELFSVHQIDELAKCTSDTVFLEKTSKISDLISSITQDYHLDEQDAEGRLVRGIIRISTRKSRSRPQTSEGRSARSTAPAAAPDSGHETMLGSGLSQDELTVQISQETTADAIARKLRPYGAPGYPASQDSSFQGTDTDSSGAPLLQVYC
UniProt A3KGV1: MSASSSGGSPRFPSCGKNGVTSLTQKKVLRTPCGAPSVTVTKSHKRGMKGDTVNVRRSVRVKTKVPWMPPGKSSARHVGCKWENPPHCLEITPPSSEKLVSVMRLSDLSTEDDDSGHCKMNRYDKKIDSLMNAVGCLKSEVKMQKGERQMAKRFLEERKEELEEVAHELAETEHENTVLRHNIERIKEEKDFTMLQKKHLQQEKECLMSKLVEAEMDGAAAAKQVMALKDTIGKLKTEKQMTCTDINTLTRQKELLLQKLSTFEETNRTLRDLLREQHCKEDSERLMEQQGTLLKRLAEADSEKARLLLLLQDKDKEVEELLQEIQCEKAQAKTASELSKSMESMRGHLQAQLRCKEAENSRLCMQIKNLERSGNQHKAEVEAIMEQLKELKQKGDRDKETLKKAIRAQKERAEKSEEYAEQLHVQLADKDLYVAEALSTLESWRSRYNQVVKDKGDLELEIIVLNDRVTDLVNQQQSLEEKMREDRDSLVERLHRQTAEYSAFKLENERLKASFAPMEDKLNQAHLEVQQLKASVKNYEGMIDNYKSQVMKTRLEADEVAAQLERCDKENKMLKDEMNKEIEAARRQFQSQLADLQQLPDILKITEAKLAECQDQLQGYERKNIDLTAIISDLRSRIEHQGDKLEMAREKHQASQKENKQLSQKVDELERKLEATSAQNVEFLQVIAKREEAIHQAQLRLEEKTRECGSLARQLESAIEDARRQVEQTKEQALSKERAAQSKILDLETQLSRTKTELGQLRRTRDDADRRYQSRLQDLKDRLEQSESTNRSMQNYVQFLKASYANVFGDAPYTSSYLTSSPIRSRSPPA

Compound: CN[C@@H]1C[C@H]2O[C@@](C)([C@@H]1OC)n1c3ccccc3c3c4c(c5c6ccccc6n2c5c31)C(=O)NC4 [staurosporine]
Experiment: log2 fold change of tryptic peptide abundance, ligand vs vehicle (limited proteolysis) (log2 ratio); higher = more trypsin-susceptible (destabilized)
Conditions: ligand concentration: 20 uM; sample: mouse liver crude lysate; replicate design: treated separately

Target | log2 fold change
UniProt A2AKQ0 (peptide sequence: QHAPVKGEAPAK, peptide start residue: 8) | -0.0311
UniProt A6PWY4 (peptide sequence: SSVDAYTESTR, peptide start residue: 113) | 0.0724
UniProt A2AS89 (peptide sequence: SVDEGLLDSK, peptide start residue: 214) | 0.154
UniProt A2A432 (peptide sequence: LRFEDTLEFVGIDTK, peptide start residue: 173) | -0.407
UniProt A7RDN6 (peptide sequence: GGDIGGR, peptide start residue: 36) | -0.0315
UniProt A2AH22 (peptide sequence: TVGVAFNQETGHWER, peptide start residue: 646) | -0.492
UniProt A2A6Q5 (peptide sequence: LDSSIISEGK, peptide start residue: 433) | 0.289
UniProt A3FIN4 (peptide sequence: RMSVIVR, peptide start residue: 546) | 0.0227
UniProt A2AU37 (peptide sequence: TSGHLLLGVVR, peptide start residue: 55) | 0.221
UniProt A1Y9I9 (peptide sequence: AQHQLNR, peptide start residue: 169) | 0.16
UniProt A2AGH6 (peptide sequence: AAFGILSYEHRPLKR, peptide start residue: 2) | 0.254
UniProt A2RSY6 (peptide sequence: HLQNLHWK, peptide start residue: 137) | 0.768
UniProt A3KMN5 (peptide sequence: IKEQANAPLIKPPAHPSAILTVLR, peptide start residue: 95) | -0.451
UniProt A6H584 (peptide sequence: GDTLPHGLR, peptide start residue: 2217) | 0.166
UniProt B2RQC6 (peptide sequence: TLGVDLVALATR, peptide start residue: 1229) | -0.506
UniProt A4FUP9 (peptide sequence: LRDHLEAAGHMCVLR, peptide start residue: 22) | 0.228
UniProt A2AT37 (peptide sequence: GAPNADLIFK, peptide start residue: 1254) | 0.225

Target | log2 fold change
UniProt A2A9F4 (peptide sequence: GIPVYPYR, peptide start residue: 168) | -0.12
UniProt A2AJI0 (peptide sequence: TAEGLLPFAEAEAFLKK, peptide start residue: 818) | 0.619
UniProt A2AHC3 (peptide sequence: ADGAPQPLRPEHFTK, peptide start residue: 920) | 0.403
UniProt B1AY13 (peptide sequence: ESNSLFPAGIR, peptide start residue: 1354) | 0.199
UniProt A2A7S8 (peptide sequence: ASPVTAPSSGLHAAVR, peptide start residue: 841) | -0.137
UniProt A3KGV1 (peptide sequence: KEELEEVAHELAETEHENTVLR, peptide start residue: 159) | 0.22
UniProt A2RSJ4 (peptide sequence: DGASSDSVVR, peptide start residue: 1371) | -0.284
UniProt A2AKX3 (peptide sequence: QCPEPTSTVEK, peptide start residue: 1264) | -0.357
UniProt A2AR02 (peptide sequence: SKGQENDHVHDKNK, peptide start residue: 723) | 0.609
UniProt A2AWP8 (peptide sequence: VSFLHRK, peptide start residue: 267) | 0.657
UniProt A2AIV8 (peptide sequence: LKEECELSSAELKR, peptide start residue: 164) | 0.421
UniProt B2KF05 (peptide sequence: ETLTYAQAQR, peptide start residue: 29) | 0.101
UniProt B1AZI6 (peptide sequence: LIALAICK, peptide start residue: 378) | -0.593
A0A140LIF8 (peptide sequence: EIIQNVSR, peptide start residue: 55), A0A140LIF8 | -0.204
UniProt A6H611 (peptide sequence: MMQGMKTK, peptide start residue: 336) | 0.297
UniProt A2AR50 (peptide sequence: EDLAGPSAGSSSAR, peptide start residue: 300) | 0.276
A0A087WPF7 (peptide sequence: KGEPAYENPKK, peptide start residue: 966), A0A087WPF7 | 0.0893

Looked up above:
log2 fold change with UniProt A2A9F4 (peptide sequence: GIPVYPYR, peptide start residue: 168) is entered as -0.12
log2 fold change with UniProt A2AHC3 (peptide sequence: ADGAPQPLRPEHFTK, peptide start residue: 920) is entered as 0.403
